According to PMC10975445:

Experiments:
[1] = target: T1, PepR (HD73_5014), DeoR family regulator (Bacillus thuringiensis HD73) (UniProt A0A0B5X633); experiment: competition with a labelled probe; details: 200-fold excess unlabeled probe competed with labeled PpepV; EMSA, native PAGE, FAM scan; recombinant protein; residues 1-73; protein details: His tag (pET21b, BamHI/SalI, PepR-His); probe letters rebuilt from the primers and the genome
[2] = target: T1, PepR (HD73_5014), DeoR family regulator (Bacillus thuringiensis HD73); experiment: EMSA; details: native PAGE, FAM scan, recombinant protein, residues 1-73, protein details: His tag (pET21b, BamHI/SalI, PepR-His), probe letters rebuilt from the primers and the genome

CGCGGATCCCATCACGCATCCATCCTTCACTATATTGTTTCTTTCATCATAACAAACCGAAATCTCTTATGCCATACACGAAAACTAAATACCGAACAATTGTAATATTTCAGATATTTCTTATTAGTTTTTCTTTTATTTTTTCAAAAAAATTTGCAGGAATTTGGCGTTTTACGTAGAATTTTATGTGTTAGTTGACTGACCATATATACAATGTCAACTACCAATATTTTTCTATATGAATATTTGTTAAATTTCTGTAAAATTTAAGTAGATTAAAGCATGAATTTTATCATGTAGAGTACAATGGTAGTAACGACCTTCTTTCCTGAATGGGGTCAAAAAAACTAGTAGAGGAGTGGTTTTCTCCTGCAGTT (double strand) [PpepV promoter fragment, unlabeled competitor]
binding result [1]: binds

CGCGGATCCCATCACGCATCCATCCTTCACTATATTGTTTCTTTCATCATAACAAACCGAAATCTCTTATGCCATACACGAAAACTAAATACCGAACAATTGTAATATTTCAGATATTTCTTATTAGTTTTTCTTTTATTTTTTCAAAAAAATTTGCAGGAATTTGGCGTTTTACGTAGAATTTTATGTGTTAGTTGACTGACCATATATACAATGTCAACTACCAATATTTTTCTATATGAATATTTGTTAAATTTCTGTAAAATTTAAGTAGATTAAAGCATGAATTTTATCATGTAGAGTACAATGGTAGTAACGACCTTCTTTCCTGAATGGGGTCAAAAAAACTAGTAGAGGAGTGGTTTTCTCCTGCAGTT (double strand) [PpepV promoter fragment]
binding result ([2]; 0.21 nM probe, PepR 14.91-44.73 uM, strong shift at 44.73 (text prints nM, legend uM), label: 5'-FAM): binds

CGCGGATCCGTAACAATAAGCGTTCCGCGCAGAAATTTCGAATCGGACATACAAAAATCCTCCTACATCTACATAAAGTGAAACTATAATTAGTTGGAGACTTCTCTCCTACTCCTTATTAGTTGAACCATTCGAGCATTTACAGGCTAACAGACTCCCTATTTACTTCTCCTAAATCTTGAGGTTTTAGTCTTATCGCCTACAAATGGCAGGATAGTGCTGAACTCTAACTTTTGTATTGTACCACAATTCTCTCATTAAGCAGTACTTCACTCTATTTTTCTTTTAAGGGAAAACATGCTATTCTTTTAGGCAGGAAATGTAGAAAATGAGGTCGATATATTATGCATTATGATGTTATTGTCATCGGCGGCGGTCCTTCTGGGCTAATGGCTGCAATTGGTGCTGCAGCTGCAGTT (double strand) [PrsuA-ytgP promoter fragment]
binding result ([2]; 0.19 nM probe, no shift at PepR 14.91-44.73 uM, label: FAM): no binding

For part of these data: A negative result means that nothing was seen under these conditions. Construct, isoform or probe ends are uncertain for at least one entry.
